No constants are given. Whether binding was seen depends on the method and setting. In cells and extracts the contact can be indirect. These calls come from enrichment with a bait or labelling near it, and not all partners need be listed.

Chains of the proteins cited; added tags and fusions are not shown. Residues count along the entry.
UniProt P06733: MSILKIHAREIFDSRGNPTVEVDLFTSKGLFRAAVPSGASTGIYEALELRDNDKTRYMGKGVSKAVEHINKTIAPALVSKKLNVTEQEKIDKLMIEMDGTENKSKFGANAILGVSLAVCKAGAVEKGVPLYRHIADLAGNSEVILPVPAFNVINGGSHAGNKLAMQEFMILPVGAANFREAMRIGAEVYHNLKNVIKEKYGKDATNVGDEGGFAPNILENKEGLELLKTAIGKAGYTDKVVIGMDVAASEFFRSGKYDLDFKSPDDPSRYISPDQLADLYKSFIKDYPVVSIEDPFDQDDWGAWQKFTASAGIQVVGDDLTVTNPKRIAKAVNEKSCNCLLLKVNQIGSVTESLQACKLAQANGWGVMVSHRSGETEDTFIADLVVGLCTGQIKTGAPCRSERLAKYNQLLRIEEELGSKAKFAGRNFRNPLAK
UniProt P30530, residues 26-894: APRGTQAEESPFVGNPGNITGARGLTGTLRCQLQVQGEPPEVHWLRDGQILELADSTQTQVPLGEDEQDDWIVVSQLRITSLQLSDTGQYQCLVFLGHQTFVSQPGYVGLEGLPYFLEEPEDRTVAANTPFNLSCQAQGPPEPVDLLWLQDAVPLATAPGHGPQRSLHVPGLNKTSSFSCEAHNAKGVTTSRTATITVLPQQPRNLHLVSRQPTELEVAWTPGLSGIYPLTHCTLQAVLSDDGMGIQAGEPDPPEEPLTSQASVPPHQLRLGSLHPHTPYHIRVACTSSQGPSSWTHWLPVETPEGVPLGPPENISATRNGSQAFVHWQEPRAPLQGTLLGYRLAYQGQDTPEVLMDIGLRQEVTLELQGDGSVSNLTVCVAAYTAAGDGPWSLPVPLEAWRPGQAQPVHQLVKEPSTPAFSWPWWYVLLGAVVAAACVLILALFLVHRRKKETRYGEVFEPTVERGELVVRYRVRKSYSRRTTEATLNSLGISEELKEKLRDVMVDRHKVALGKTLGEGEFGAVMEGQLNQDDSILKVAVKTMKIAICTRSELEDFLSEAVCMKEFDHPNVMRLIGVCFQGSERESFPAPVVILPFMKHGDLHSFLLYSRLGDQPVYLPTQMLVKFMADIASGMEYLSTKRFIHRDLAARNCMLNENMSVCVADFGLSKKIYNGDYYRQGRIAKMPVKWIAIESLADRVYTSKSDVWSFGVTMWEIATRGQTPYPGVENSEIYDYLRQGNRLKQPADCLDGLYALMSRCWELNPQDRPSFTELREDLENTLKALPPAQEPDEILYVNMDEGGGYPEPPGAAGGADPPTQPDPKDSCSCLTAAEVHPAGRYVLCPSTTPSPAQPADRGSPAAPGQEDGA
UniProt O00206, residues 24-839: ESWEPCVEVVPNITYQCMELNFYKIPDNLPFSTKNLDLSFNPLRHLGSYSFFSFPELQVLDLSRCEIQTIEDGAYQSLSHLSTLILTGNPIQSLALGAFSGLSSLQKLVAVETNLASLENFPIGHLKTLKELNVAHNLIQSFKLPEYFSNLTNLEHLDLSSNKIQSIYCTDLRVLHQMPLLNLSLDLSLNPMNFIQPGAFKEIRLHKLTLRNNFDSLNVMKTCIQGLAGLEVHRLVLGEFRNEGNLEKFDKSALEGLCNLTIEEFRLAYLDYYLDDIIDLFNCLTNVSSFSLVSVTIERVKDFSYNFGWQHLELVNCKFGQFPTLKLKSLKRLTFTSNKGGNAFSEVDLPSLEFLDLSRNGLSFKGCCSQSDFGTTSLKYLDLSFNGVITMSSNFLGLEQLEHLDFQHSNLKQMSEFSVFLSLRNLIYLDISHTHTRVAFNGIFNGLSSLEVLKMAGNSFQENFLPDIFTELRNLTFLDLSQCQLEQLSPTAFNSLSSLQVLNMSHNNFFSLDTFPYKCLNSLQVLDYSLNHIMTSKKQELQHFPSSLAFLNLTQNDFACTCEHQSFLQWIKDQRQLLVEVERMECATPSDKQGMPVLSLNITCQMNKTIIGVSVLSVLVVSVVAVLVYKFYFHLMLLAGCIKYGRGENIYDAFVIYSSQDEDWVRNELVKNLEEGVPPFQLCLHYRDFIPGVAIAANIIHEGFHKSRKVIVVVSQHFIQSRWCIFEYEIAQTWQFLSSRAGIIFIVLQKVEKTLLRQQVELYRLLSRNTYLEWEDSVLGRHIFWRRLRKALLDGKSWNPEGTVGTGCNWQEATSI

The values below come from PMC12827997.

The assay concerns the target Alpha-enolase (ENO1) (human (endogenous in GBM cell lines)) (UniProt P06733). In words: affinity purification with mass spectrometry; U87MG cells treated with rhENO1 (1 μg/mL) for 0-12 h; IP of whole-cell lysates with ENO1-specific antibody-conjugated beads, silver staining, differential 70-130 kDa bands excised for MS; hits cross-referenced with the Membranome database.

Turning to “AXL (from UniProt P30530 26-894) (receptor)”, the binding entry is recorded as “binds”.

For “Toll-like receptor 4 (TLR4) (from UniProt O00206 24-839)”, the binding result was “binds”.
